# Assay results reported in PMC2848011.
# By UniProt entry, the sequences of proteins in these tests, tags left out.
# UniProt P08047: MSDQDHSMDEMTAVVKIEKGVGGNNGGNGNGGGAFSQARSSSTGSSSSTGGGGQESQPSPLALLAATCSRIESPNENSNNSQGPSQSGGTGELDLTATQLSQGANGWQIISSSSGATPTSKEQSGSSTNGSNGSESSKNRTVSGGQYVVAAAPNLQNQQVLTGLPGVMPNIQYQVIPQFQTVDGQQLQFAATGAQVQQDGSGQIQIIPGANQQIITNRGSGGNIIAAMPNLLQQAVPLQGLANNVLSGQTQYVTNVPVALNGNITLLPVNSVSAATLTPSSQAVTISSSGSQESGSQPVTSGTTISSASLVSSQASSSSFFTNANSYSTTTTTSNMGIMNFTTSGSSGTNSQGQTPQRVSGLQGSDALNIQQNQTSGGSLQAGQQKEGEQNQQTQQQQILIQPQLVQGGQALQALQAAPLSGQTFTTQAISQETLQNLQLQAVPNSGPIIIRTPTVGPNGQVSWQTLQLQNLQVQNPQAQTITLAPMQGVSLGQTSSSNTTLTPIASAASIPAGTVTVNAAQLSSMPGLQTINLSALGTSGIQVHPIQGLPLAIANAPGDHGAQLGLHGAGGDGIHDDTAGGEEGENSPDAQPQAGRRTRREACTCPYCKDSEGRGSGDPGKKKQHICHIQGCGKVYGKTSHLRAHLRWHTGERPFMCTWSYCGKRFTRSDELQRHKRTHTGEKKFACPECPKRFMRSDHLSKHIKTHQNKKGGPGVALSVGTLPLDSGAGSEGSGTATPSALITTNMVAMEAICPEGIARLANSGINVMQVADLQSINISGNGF
# UniProt Q02447: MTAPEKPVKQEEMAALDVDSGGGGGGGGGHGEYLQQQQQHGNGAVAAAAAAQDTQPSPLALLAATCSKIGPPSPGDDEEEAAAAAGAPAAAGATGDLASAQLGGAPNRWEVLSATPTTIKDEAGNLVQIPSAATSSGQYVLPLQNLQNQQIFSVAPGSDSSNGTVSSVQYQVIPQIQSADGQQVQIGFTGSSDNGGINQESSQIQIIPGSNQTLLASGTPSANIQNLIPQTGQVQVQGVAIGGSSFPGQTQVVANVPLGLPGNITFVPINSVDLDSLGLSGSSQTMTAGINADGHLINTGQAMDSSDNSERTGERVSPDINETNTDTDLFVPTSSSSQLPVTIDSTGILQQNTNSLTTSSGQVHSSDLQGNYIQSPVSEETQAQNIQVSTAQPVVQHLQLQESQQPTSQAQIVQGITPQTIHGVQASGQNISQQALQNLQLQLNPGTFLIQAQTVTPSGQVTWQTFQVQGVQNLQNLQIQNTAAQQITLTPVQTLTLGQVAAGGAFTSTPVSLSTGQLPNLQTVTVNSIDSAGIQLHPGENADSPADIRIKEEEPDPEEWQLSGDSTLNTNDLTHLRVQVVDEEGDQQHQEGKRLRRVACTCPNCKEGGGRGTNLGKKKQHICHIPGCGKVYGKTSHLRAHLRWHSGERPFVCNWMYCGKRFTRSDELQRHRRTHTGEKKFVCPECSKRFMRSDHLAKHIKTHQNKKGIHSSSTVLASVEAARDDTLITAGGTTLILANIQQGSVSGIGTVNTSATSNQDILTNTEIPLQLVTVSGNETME
# UniProt P49715: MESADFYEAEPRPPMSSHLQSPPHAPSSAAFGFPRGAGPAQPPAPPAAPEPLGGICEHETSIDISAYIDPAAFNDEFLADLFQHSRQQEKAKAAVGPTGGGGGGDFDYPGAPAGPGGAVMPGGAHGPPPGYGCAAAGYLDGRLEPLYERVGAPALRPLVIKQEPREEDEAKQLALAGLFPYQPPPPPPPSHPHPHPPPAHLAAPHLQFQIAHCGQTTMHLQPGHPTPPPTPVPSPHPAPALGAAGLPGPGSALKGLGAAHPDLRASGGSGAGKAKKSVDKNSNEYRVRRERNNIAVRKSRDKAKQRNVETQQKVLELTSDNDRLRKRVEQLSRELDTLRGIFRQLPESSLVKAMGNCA
# UniProt Q02446: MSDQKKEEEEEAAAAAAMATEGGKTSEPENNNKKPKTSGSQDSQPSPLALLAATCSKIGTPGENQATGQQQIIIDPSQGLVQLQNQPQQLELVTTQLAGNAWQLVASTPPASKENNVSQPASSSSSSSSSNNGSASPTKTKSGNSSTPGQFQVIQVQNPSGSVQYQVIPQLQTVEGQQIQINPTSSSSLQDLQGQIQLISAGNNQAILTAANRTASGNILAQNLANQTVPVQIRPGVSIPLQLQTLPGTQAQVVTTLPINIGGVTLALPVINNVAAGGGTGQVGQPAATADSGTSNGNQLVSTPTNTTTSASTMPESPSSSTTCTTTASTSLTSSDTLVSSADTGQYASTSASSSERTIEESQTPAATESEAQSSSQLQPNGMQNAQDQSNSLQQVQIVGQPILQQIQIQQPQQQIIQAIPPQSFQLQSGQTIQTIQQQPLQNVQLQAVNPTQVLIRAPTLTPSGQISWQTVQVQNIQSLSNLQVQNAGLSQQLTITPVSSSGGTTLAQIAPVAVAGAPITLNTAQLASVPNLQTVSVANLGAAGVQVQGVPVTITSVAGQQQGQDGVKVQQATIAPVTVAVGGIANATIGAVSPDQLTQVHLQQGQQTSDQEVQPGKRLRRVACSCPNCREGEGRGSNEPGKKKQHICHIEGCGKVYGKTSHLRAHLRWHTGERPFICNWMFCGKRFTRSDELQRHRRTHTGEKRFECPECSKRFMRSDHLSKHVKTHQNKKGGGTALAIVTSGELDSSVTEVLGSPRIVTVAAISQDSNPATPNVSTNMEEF
# UniProt P37231: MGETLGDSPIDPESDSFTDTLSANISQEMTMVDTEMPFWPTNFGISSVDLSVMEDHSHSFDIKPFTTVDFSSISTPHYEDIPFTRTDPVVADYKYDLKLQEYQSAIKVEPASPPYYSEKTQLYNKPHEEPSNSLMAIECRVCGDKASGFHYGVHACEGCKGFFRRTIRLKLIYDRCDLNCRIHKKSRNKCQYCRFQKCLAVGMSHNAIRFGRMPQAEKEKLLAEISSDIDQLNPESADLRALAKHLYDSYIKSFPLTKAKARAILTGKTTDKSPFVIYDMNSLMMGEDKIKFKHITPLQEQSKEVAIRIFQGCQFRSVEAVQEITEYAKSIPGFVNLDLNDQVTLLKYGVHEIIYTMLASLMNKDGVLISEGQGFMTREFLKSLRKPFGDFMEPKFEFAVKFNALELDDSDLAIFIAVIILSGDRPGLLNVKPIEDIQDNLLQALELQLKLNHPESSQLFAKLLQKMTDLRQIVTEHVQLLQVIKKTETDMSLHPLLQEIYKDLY
# These are yes or no findings as the source states them, for the method shown. For some assays here: Binding seen in cells or lysates may run through a third protein. Some binding calls cover weakened binding; strength is not graded here.
# Legend:
# [1] = biological target: Specificity Protein 1 (Sp1) (human (endogenous in U937)) (UniProt P08047); assay: native gel or EMSA; super-shift EMSA: radio labeled hres Sp1 oligonucleotide (-276 to -295), 7.5 µg U937 nuclear extract (unstimulated; Sp1-Sp3 also with PMA stimulated extract), 2 µg of antibody to each factor; Sp1 binding buffer (10 mM Tris-Cl pH 7.5, 75 mM KCl, 0.1 mM EDTA, 2.5 mM MgCl2, 0.25 mM DTT, 10% glycerol), on ice
# [2] = biological target: Specificity Protein 1 (Sp1) (human (endogenous in U937)) (UniProt P08047); assay: co-IP; whole cell extracts of PMA stimulated U937 cells in modified RIPA buffer; immune-precipitated with anti-Sp1 antibodies and blotted with PPARγ antibodies and vice versa; Protein G sepharose
# [3] = biological target: Sp3 (human (endogenous in U937)) (UniProt Q02447); assay: native gel or EMSA; super-shift EMSA: radio labeled hres Sp1 oligonucleotide (-276 to -295), 7.5 µg U937 nuclear extract (unstimulated; Sp1-Sp3 also with PMA stimulated extract), 2 µg of antibody to each factor; Sp1 binding buffer (10 mM Tris-Cl pH 7.5, 75 mM KCl, 0.1 mM EDTA, 2.5 mM MgCl2, 0.25 mM DTT, 10% glycerol), on ice
# [4] = biological target: Specificity Protein 1 (Sp1) (human (endogenous in U937)) (UniProt P08047); assay: native gel or EMSA; super-shift EMSA: radio labeled hres Sp1 oligonucleotide, nuclear extracts from PMA stimulated U937 cells, anti-PPARγ antibody added
# [5] = biological target: Specificity Protein 1 (Sp1) (human (endogenous in U937)) (UniProt P08047); assay: co-IP; whole cell extracts of unstimulated U937 cells in modified RIPA buffer; immune-precipitated with anti-Sp1 antibodies and blotted with PPARγ antibodies and vice versa; Protein G sepharose, 4°C overnight
binding [1],binding [3],binding [5],Substance,binding [2],binding [4]
no binding,,,CCAAT enhancer binding protein α (C/EBP-α) (from UniProt P49715 1-358),,
binds,,,Sp3 (from UniProt Q02447 1-781),,
no binding,,,Sp4 (from UniProt Q02446 1-784),,
binds,binds,binds,peroxisome proliferator activating receptor gamma (PPARγ) (from UniProt P37231 1-505),no binding (condition: PMA stimulated U937 cells),no binding (condition: PMA stimulated U937 cells)
